According to EP3009138B1, “MANGIFERA EXTRACT FOR THE MANAGEMENT OF OBESITY AND/OR WEIGHT” (Kodimule, Shyam Prasad, priority 2014, dated 2016):
For at least one compound, name, drawing or mass did not settle the structure.

Tests used:
Assay type in all cases: biochemical
[1] = Total antioxidant assay (phosphomolybdenum method); settings: 100µg/ml (method)
[2] = Hydrogen peroxide (H2O2) scavenging activity
Experimental: Hydrogen peroxide scavenging activity of the HC was estimated in this study where initially, HC solutions were prepared at different concentrations in distilled water and the resultant solutions were mixed in 0.6 ml of 40 mM H2O2 solution prepared in phosphate buffer (0.1 M pH 7.4) and incubated for 10 min. The absorbance was measured at 230 nm against a blank solution containing H2O2. Similar procedure was repeated for HC, Mangiferin and Quercetin. The amount of hydrogen peroxide radical inhibited was calculated using the following equation. The result is expressed as % H2O2 radical scavenging activity. H2 O2 radical scavenging activity = {(Abs control−Abs sample) × 100; (Abs control)} [formula] where: • Abs control - Absorbance of H2O2 radical • Abs sample - Absorbance of sample extract/ standard (the HC, mangiferin and quercetin)

[3] = Superoxide Dismutase (SOD) activity / superoxide anion scavenging (NBT/NADH/PMS); settings: 100µg/ml (method)
Experimental: The superoxide anion scavenging activity of the HC was measured in this test. 1 ml (156 µM) of Nitro blue tetrazolium (NBT), 1 ml (468 µM) of nicotinamide adenine dinucleotide (NADH) and 3 ml of the HC at 100 µg/ml concentration were admixed in phosphate buffer (pH 7.4). The reaction was started by adding 100 µl of phenazine methosulfate (PMS) (0.18mg/ml) and the mixture was incubated at 25°C for 5 min followed by measuring the absorbance at 560 nm. Similar solutions were prepared for quercetin and mangiferin and the percentage of inhibition was calculated by using the formula provided herein-below; the result was expressed as % superoxide dismutase scavenging activity. % superoxide dismutase inhibition = {(Abs control−Abs sample) × 100; Abs control} [formula] where: • Abs control - Absorbance of control • Abs sample - Absorbance of sample extract/ standard (the HC, mangiferin and quercetin)

[4] = Lipid peroxidation inhibitory assay (TBARS); settings: Sample Concentration: 100-500µ g/ml
Experimental: A modified Thiobarbituric acid reactive species (TBARS) assay (Ohkowa et al., 1979) is used to measure lipid peroxidation formed using egg yolk homogenate as lipid rich media (Ruberto et al., 2000).
Take 0.5ml of egg homogenate (10%in distilled water) and 0.1 ml of test sample in the concentration range 100-500µ g/ml in a test tube and volume made up to 1 ml by adding distilled water. Finally add 0.05 ml ferrous sulphate (0.07M) to the above mixture and incubate for 30 min to induce the lipid peroxidation. Thereafter add 1.5 ml of 20% acetic acid (pH 3.5) and 1.5 ml of (0.8%in 1.1% SDS) TBA and 0.05 ml (20%) TCA then heated in boiling water bath for 60 min. After cooling 5 ml of butanol will be added to all the test tubes and centrifuged at 3000 rpm for 10 min. Measure the absorbance of the organic upper layer at 532 nm. The percentage inhibition of lipid peroxidation calculated from the formula, % Inhibition = ((Abcontrol−Abtest sample)*100)/(Abcontrol) [formula] where: • Ab (cont) - is the absorbance of the control • Ab (test sample) - is the absorbance of the test sample /standard Table 12 Lipid peroxidation inhibitory assay test results

carbonic anhydrase = assay: Carbonic Anhydrase Assay (4-NPA); settings: Sample Concentration: 100µg

For `O=c1c2cc(O)c(O)cc2oc2cc(O)c([C@@H]3O[C@H](CO)[C@@H](O)[C@H](O)[C@H]3O)c(O)c12` [Mangiferin 98%, Mangiferin], the “Total antioxidant assay, mg equivalent ascorbic acid” value [1] was 31.23 mg equivalent ascorbic acid, the H2O2 scavenging activity ([2]; 10 µg/ml) was 8.49% and the H2O2 scavenging activity ([2]; 20 µg/ml) was 33.01%. The H2O2 scavenging activity ([2]; 30 µg/ml) was 64.15%, the H2O2 scavenging activity ([2]; 40 µg/ml) was 76.41% and the “SOD activity % Inhibition” value [3] was 7.50%. For the same compound, the “Lipid peroxidation inhibitory assay % inhibition” value [4] was 74.9% and the “Carbonic Anhydrase % inhibition” value (carbonic anhydrase) was 47.06%.
